The source of these data is doi:10.1101/2022.01.12.476021.

Amino acid sequences for entries named in this document (tags omitted).
UniProt P0AG99: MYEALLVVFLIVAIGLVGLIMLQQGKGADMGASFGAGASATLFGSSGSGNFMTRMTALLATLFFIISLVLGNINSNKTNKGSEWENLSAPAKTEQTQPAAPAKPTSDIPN

The chains are these.
B1: HflC (protein, UniProt P0ABC3 1-334)
chain: MRKSVIAIIIIVLVVLYMSVFVVKEGERGITLRFGKVLRDDDNKPLVYEPGLHFKIPFIETVKMLDARIQTMDNQADRFVTKEKKDLIVDSYIKWRISDFSRYYLATGGGDISQAEVLLKRKFSDRLRSEIGRLDVKDIVTDSRGRLTLEVRDALNSGSAGTEDEVTTPAADNAIAEAAERVTAETKGKVPVINPNSMAALGIEVVDVRIKQINLPTEVSEAIYNRMRAEREAVARRHRSQGQEEAEKLRATADYEVTRTLAEAERQGRIMRGEGDAEAAKLFADAFSKDPDFYAFIRSLRAYENSFSGNQDVMVMSPDSDFFRYMKTPTSATR
B2: YajG (protein, UniProt P0ADA5 18-192)
chain: CAKPPTTIEVSPTITLPQQDPSLMGVTVSINGADQRTDQALAKVTRDNQIVTLTASRDLRFLLQEVLEKQMTARGYMVGPNGPVNLQIIVSQLYADVSQGNVRYNIATKADIAIIATAQNGNKMTKNYRASYNVEGAFQASNKNIADAVNSVLTDTIADMSQDTSIHEFIKQNAR
B3: YiaD (protein, UniProt P37665 21-219)
chain: CTTNPYTGEREAGKSAIGAGLGSLVGAGIGALSSSKKDRGKGALIGAAAGAALGGGVGYYMDVQEAKLRDKMRGTGVSVTRSGDNIILNMPNNVTFDSSSATLKPAGANTLTGVAMVLKEYPKTAVNVIGYTDSTGGHDLNMRLSQQRADSVASALITQGVDASRIRTQGLGPANPIASNSTAEGKAQNRRVEITLSPL

Results are given in words; binding and its absence hold for the method and conditions named. Binding seen in cells or lysates may run through a third protein. Here binding means that the protein was enriched with, or labelled near, the bait; the list need not be complete.

In this assay the target is SecG (E. coli (endogenous in BL21 (DE3))) (UniProt P0AG99). Briefly: affinity purification with mass spectrometry.
As for B1, the binding entry is recorded as “binds”.

In the case of B2, the binding result was “binds”.

With B3, the binding entry is on record as “binds”.
